No constants are given. Whether binding was seen depends on the method and setting. Some results given as binding are weak or reduced against the parent protein; the word gives no strength. For some assays here: Sequences can lack the tags named with a protein.

Assay [1] addresses T1, recombinant Sp17 protein (human) (UniProt Q15506).
T1 sequence (looked up): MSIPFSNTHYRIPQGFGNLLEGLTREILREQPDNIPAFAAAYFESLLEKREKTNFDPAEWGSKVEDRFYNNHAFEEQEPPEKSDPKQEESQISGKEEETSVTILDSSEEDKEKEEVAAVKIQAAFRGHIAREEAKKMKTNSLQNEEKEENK
The assay can be described thus: western blot of Sp17 protein. On the technique in general: Immunoblotting shows a protein as a band on a membrane.

The target in assay [2] is T1, recombinant Sp17 protein (human). Nature of the assay: western blot of recombinant Sp17 protein.
For assay [3] the target is unchanged. Nature of the assay: western blot of Sp17 protein (lanes 1-3) after SDS-PAGE, detected with chAB2.
Assay [4] addresses T2, recombinant 6His-Sp17 protein (human, UniProt Q15506 1-151, limits assumed).
T2 construct: The species is not restated for this recombinant protein; not shown: 6His tag
T2 sequence (looked up): T1 sequence (looked up)
The assay can be described thus: surface plasmon resonance (Biacore T200), 6His-Sp17 at 300, 100, 50, 25, 12.5 and 6.25 nM according to the legend. Background: SPR reads the build-up and loss of mass on a sensor chip optically.

In assay [5] the target is T1, recombinant Sp17 protein (human). Nature of the assay: ELISA of phage display clones.
For assay [6] the target is unchanged. Nature of the assay: western blot.
For assay [7] the target is unchanged. Nature of the assay: western blot of Sp17 protein and a tumor cell lysate.
Assay [8] has the same target. The assay can be described thus: western blot of Sp17 protein (lane 1) after SDS-PAGE, detected with SP17-AB2.

B1: mouse-human chimeric anti-Sp17 IgG2a/kappa monoclonal antibody chAB2 (antibody, V domains shown)
VH: QVQLQQSGAEVKKPGSSVKVSCKASGGTFSSYAISWVRQAPGQGLEWMGRIIPILGIANYAQKFQGRVTITADKSTSTAYMELSSLRSEDTAVYYCARPSEEVVAAYGAFDIWGQGTTVTVSS
VL: EIVLTQSPLSLPVRPGEPASISCRASQSLLRSDGFNYLDWYLQKPGQSPQLLVYLGSNRASGVPDRFSGSGSGTDFTLKISRVEAEDVGVYYCMQAVQTPYIFGQGTKLEIK
notes: also called anti-Sp17 antibody chAB2; chimeric monoclonal antibody (chAB2); not shown: mouse IgG2a heavy chain constant region; mouse kappa light chain constant region
For B1, the binding entry in assay [1], in assay [2], in assay [3] and in assay [4] was “binds” in each case.

B2: best-performing anti-Sp17 Fab clone from the human Fab phage display library (Fab, V domains shown)
VH: B1 VH
VL: B1 VL
As to B2, the binding result in assay [5] was “binds”.

B3: human anti-Sp17 IgG4/kappa monoclonal antibody SP17-AB2 (antibody, V domains shown)
VH: B1 VH
VL: EIVLTQSPLSLPVRPGEPASISCRASQSLLRSDGFNYLDWYLQKPGQSPQLLVYLGSNRASGVPDRFSGSGSGTDFTLKISRVEAEDVGVYYCMQAVQTPYIFGQGTKLEIKR
In the case of B3, the binding entry in assay [6], in assay [7] and in assay [8] was “binds” throughout.

These data come from US20250127942A1 (MEDICOVESTOR, published 2025).
